PubChem BioAssay AID1259307 | Sanger Institute | 2017

Test: 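Screen of kinase gene silencing for colorectal cancer cell killing and drug cooperation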 (primary screen)
Cell system: SW620 colorectal cancer cells
Reagents: siRNA pool against human genes
Treatment: anchor drugs BYL719 at 1 µM, cetuximab at 5 µg/ml or trametinib at 10 nM, each beside a DMSO vehicle arm
Measured: 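Per-well viability versus non-targeting control pool, replicate-averaged, robust z-score from controls; synergy scores for BYL719 1 µM, cetuximab 5 µg/ml, trametinib 10 nM against DMSO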
Reading the numbers: viability robust z-score, no drug and viability vs control, no drug: higher = more viable cells
Active means: 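a knock-down counts as lethal alone if its drug-free robust viability z-score is lower than -3, regardless of synergy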
Meaning of the calls: active = essential (lethal alone); inactive = no change alone
Shown is an unselected part of 794 reagents tested. Of all reagents, 15 (1.9%) are marked active. 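Calls reflect lethality without any drug; synergy scores did not enter the calls.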 Entries without a mark were called inactive. Viability is capped at 1. Not all columns of the deposit are shown. Not stated in the record: the amount of reagent, the time to read-out.

CHEK2 (GeneID 11200) [SID152153325]
- viability robust z-score, no drug: 0.293
- viability vs control, no drug: 0.959

FASTK (GeneID 10922) [SID56479004]
- viability robust z-score, no drug: 0.332
- viability vs control, no drug: 0.963

PEAK1 (GeneID 79834) [SID152152075]
- viability robust z-score, no drug: 0.736
- viability vs control, no drug: 1

PIM1 (GeneID 5292) [SID56478736]
- viability robust z-score, no drug: -2.05
- viability vs control, no drug: 0.743

PKDCC (GeneID 91461) [SID152147854]
- viability robust z-score, no drug: -0.709
- viability vs control, no drug: 0.867

PKLR (GeneID 5313) [SID152148534]
- viability robust z-score, no drug: 0.736
- viability vs control, no drug: 1

MAP3K6 (GeneID 9064) [SID56478746]
- viability robust z-score, no drug: -0.19
- viability vs control, no drug: 0.915

TSKS (GeneID 60385) [SID56479267]
- viability robust z-score, no drug: 0.736
- viability vs control, no drug: 1

INSR (GeneID 3643) [SID152149459]
- viability robust z-score, no drug: -0.226
- viability vs control, no drug: 0.911

PTK7 (GeneID 5754) [SID135620629]
- viability robust z-score, no drug: -0.646
- viability vs control, no drug: 0.872

MVK (GeneID 4598) [SID56479115]
- viability robust z-score, no drug: 0.736
- viability vs control, no drug: 1

PTPN11 (GeneID 5781) [SID134310183]
- viability robust z-score, no drug: 0.164
- viability vs control, no drug: 0.947

ALK (GeneID 238) [SID56478483]
- viability robust z-score, no drug: 0.473
- viability vs control, no drug: 0.976

PIK3CD (GeneID 5293) [SID135621250]
- viability robust z-score, no drug: 0.699
- viability vs control, no drug: 0.997

CAMK1G (GeneID 57172) [SID56478930]
- viability robust z-score, no drug: -1.5
- viability vs control, no drug: 0.794

2 entries from above, ordered by “viability vs control, no drug”, high to low.
PKLR (GeneID 5313) [SID152148534]
- viability robust z-score, no drug: 0.736
- viability vs control, no drug: 1

MAP3K6 (GeneID 9064) [SID56478746]
- viability robust z-score, no drug: -0.19
- viability vs control, no drug: 0.915

Further reagents follow.
CDK9 (GeneID 1025) [SID152156235]
- viability robust z-score, no drug: 0.736
- viability vs control, no drug: 1

FGFR4 (GeneID 2264) [SID56478514]
- viability robust z-score, no drug: 0.731
- viability vs control, no drug: 1

ROCK1 (GeneID 6093) [SID152156760]
- viability robust z-score, no drug: 0.537
- viability vs control, no drug: 0.982

KRAS (GeneID 3845) [SID134310727]
- viability robust z-score, no drug: -3.43 (active)
- viability vs control, no drug: 0.616

STK40 (GeneID 83931) [SID56479025]
- viability robust z-score, no drug: 0.736
- viability vs control, no drug: 1

AK3 (GeneID 50808) [SID56479080]
- viability robust z-score, no drug: -1.75
- viability vs control, no drug: 0.771

ETNK2 (GeneID 55224) [SID56478982]
- viability robust z-score, no drug: 0.736
- viability vs control, no drug: 1

PRKAG2 (GeneID 51422) [SID135621825]
- viability robust z-score, no drug: 0.736
- viability vs control, no drug: 1

STK35 (GeneID 140901) [SID135620978]
- viability robust z-score, no drug: 0.736
- viability vs control, no drug: 1

EFNA3 (GeneID 1944) [SID135623696]
- viability robust z-score, no drug: 0.736
- viability vs control, no drug: 1

NME5 (GeneID 8382) [SID56479119]
- viability robust z-score, no drug: 0.483
- viability vs control, no drug: 0.977

IGF1R (GeneID 3480) [SID152153009]
- viability robust z-score, no drug: 0.566
- viability vs control, no drug: 0.984

PAPSS1 (GeneID 9061) [SID56479195]
- viability robust z-score, no drug: 0.736
- viability vs control, no drug: 1
